# Results of single-concentration screens

Chains of the proteins cited; added tags and fusions are not shown. Residues count along the entry.
UniProt P9WFT3, whole entry: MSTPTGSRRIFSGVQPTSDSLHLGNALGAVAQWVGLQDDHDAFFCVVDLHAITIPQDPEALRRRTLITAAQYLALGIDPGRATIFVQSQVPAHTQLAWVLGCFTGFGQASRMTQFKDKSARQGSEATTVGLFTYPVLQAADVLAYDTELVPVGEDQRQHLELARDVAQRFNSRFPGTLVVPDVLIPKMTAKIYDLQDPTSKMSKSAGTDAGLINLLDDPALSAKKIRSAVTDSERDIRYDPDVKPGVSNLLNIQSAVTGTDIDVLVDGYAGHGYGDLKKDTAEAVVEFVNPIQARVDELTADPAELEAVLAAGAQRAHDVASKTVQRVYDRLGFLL
UniProt Q8IDJ8, 1-583: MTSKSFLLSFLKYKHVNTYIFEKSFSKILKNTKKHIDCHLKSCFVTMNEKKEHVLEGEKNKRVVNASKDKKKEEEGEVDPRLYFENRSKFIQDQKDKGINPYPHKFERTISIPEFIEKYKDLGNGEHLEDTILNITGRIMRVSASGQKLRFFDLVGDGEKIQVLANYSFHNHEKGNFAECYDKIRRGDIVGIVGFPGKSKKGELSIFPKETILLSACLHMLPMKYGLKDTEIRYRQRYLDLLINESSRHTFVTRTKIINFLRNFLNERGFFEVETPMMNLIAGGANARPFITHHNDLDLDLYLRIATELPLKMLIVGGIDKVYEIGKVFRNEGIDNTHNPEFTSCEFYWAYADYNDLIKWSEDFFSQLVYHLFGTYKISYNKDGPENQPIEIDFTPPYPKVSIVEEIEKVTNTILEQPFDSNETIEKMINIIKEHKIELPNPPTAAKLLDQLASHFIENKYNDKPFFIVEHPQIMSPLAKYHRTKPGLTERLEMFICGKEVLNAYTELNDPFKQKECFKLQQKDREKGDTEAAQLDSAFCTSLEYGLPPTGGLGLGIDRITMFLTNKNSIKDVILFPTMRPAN
UniProt P9WPC5, whole entry: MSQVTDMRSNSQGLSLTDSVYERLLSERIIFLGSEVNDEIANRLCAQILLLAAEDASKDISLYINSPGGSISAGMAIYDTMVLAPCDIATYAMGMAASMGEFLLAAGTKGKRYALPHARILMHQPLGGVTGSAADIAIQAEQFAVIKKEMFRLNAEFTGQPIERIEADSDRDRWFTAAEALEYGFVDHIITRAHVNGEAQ
UniProt P9WPC3, whole entry partner: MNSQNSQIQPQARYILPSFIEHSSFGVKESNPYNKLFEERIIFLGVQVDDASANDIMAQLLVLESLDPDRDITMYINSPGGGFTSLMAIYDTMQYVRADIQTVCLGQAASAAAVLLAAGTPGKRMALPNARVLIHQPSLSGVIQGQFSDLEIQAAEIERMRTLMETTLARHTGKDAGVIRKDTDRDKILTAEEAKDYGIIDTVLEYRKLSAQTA

The filed quantity is “Percent Effect” (%).
How 0% and 100% were set is not recorded. Most values in the screen are low, and negative values occur.
Compounds were drawn at random from those tested, without regard to their results.
A dash means the value is not listed here; it may have been measured.

MtTrpRS: 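Enzyme assay of tryptophanyl-tRNA synthetase; the read-out is not stated. Target: Tryptophan-tRNA ligase, Mycobacterium tuberculosis (UniProt P9WFT3). Tested at 10 µM. Higher most likely means stronger inhibition; the record gives no direction and few retests gave an IC50. About 65,000 compounds were tested under these conditions; 0.098% (about 64) showed 50% or more at least once.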
PfKRS1: 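Enzyme assay of the cytosolic lysyl-tRNA synthetase in 384-well plates, read by luminescence. Target: Lysine-tRNA ligase, Plasmodium falciparum 3D7 (UniProt Q8IDJ8). Concentration: 30 µM. Higher reads as stronger inhibition, judged from the few compounds that gave an IC50. Of about 69,000 compounds tested this way, about 49 (0.071%) reached 50% or more in at least one test.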
ClpP1P2: 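ClpP1P2, Mycobacterium tuberculosis (UniProt P9WPC5 and UniProt P9WPC3). Protease assay of ClpP1P2, read by the AMC dye that it sets free. Tested at 50 µM. Higher reads as stronger inhibition, judged from the few compounds that gave an IC50. Most other retested compounds had strongly negative values. Size under these conditions: about 69,000 compounds, about 10 of them at 50% or above in at least one test.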

| # | Compound | MtTrpRS | PfKRS1 | ClpP1P2 |
|---|---|---|---|---|
| 1 | `Cc1cc(C)n(CC(=O)N(C)Cc2csc(-c3cccs3)n2)c(=O)n1` | 7.993 | -5.184 | 5.829 |
| 2 | `O=C1CCCN1Cc1nnc2n1CCCN(C(=O)c1ccc[nH]1)C2` | - | 2.988 | -0.9382 |
| 3 | `Cc1ccc(OCCCNC(=O)Cc2nc3ncccn3n2)cc1` | -2.3 | 4.192 | 10.96 |
| 4 | `Cc1cccc(OCC(=O)N(C)C2CCN(CC3CCOC3)CC2)c1` (stereo unspecified) | -6.442 | 8.102 | 5.581 |
| 5 | `CS(=O)(=O)Nc1cccc(CNC(=O)CCc2ccsc2)c1` | 2.204 | 6.619 | 2.353 |
| 6 | `CN(C)c1cc(C2CCCN2C(=O)c2noc3c2CCCC3)ccn1` (stereo unspecified) | 4.017 | 0.1892 | -17.88 |
| 7 | `CCOCCSc1nnc(-c2cn(CC)nc2OCC)n1C` | 4.25 | 8.032 | 3.741 |
| 8 | `COC(=O)CC(c1ccc(O)c(Cl)c1)c1oc(C)cc(=O)c1O` (stereo unspecified) | 0.5882 | 1.025 | -11.99 |
| 9 | `CCS(=O)(=O)c1ccc2c(c1)OCCO2` | -1.802 | 3.44 | 1.394 |
| 10 | `CCCn1c(C)c(CC(=O)NCCNC(C)=O)c2c1CC(C)(C)CC2=O` | 1.485 | 0.742 | -17.72 |
| 11 | `c1cc(-c2cnc(NC3CC3)nc2[C@@H]2CCCO2)ccn1` | 4.45 | 1.861 | 1.62 |
| 12 | `CNC(=O)CCc1cc(C)nc(C2CCN(CC(=O)N(C)C)CC2)c1` | -6.901 | -1.11 | -29.37 |
| 13 | `O=C(c1cc2c(s1)CCN2C(=O)C1CC1)N1CCCC1` | -5.771 | -2.647 | 7.698 |
| 14 | `CN(Cc1ccco1)C(=O)CN1C(=O)c2cc(Cl)c(Cl)cc2C1=O` | -1.125 | 3.283 | -0.5748 |
| 15 | `CN(C)CCOc1ccc(N(C)S(=O)(=O)c2cnn(C)c2)cc1` | -0.8602 | 4.069 | -3.914 |
| 16 | `CN(Cc1csc(-c2cccs2)n1)C(=O)CN1CCOC1=O` | 1.916 | 0.9064 | -8.328 |
| 17 | `Cc1cccc(N2CC3(CCN(S(=O)(=O)c4cccs4)C3)CC2=O)c1` (stereo unspecified) | -1.599 | 7.703 | -10.94 |
| 18 | `COCCNC(=O)CSc1nnc(OC(C)C)s1` | -1.56 | 3.36 | -9.843 |
| 19 | `O=C(CCC(=O)N1CCC(c2noc3cc(F)ccc23)CC1)NC1CC1` | -0.3163 | 3.399 | 24.5 |
| 20 | `O=S(=O)(NCc1ccccc1)N(Cc1ccccn1)CC1CCCO1` (stereo unspecified) | 2.254 | 10.38 | -17.64 |
| 21 | `CC(C)CNC(=O)C[S+]([O-])Cc1csc(C2CCCCC2)n1` (stereo unspecified) | -4.204 | 4.513 | 1.863 |
| 22 | `C[C@H]1CN(c2ccccn2)C[C@@]12CCN(Cc1cccnc1)C2=O` | - | 1.009 | -3.047 |
| 23 | `O=C(C1CC1)N1CCC(c2nc(O)c3c(n2)CN(C2CCCC2)CC3)C1` (stereo unspecified) | - | 10.01 | 12.37 |
| 24 | `O=C(CCc1nc(-c2cccnc2)no1)N(CC1CCOC1)C1CC1` (stereo unspecified) | 4.161 | -0.6765 | -11.9 |
| 25 | `CCc1ccc(S(=O)(=O)Nc2cn(C)cc(Br)c2=O)cc1` | -4.257 | -1.711 | -13.14 |
| 26 | `NC(=O)C1CCN(C(=O)C2SCCc3sccc32)CC1` (stereo unspecified) | -2.922 | 4.087 | -2.821 |
| 27 | `CS(=O)(=O)N1CCC(c2nnc(Cn3ccnc3)n2C2CC2)CC1` | -2.292 | 5.411 | 0.9396 |
| 28 | `Cc1nc(CN2CCC(N(C)Cc3nnc(C4CC4)n3C)C2)cs1` (stereo unspecified) | -5.814 | 1.164 | -12.64 |
| 29 | `Cc1ccc(CN2CC[C@@H]3[C@@H](CO[C@H]3CN3CCN(C)CC3)C2)cc1` | -0.4537 | 6.204 | -21.71 |
| 30 | `CCCS(=O)(=O)N1CCC2(CC1)CC(=O)N(Cc1cc(F)cc(F)c1)C2` | 5.576 | 2.082 | 6.419 |
| 31 | `Cc1ccc(NC(=O)N(C)CC(O)COCCOC(C)C)c(Br)c1` (stereo unspecified) | -2.023 | -0.05652 | -8.801 |
| 32 | `CCOC(=O)N1CC(C)=C(C)CN1C(=O)Nc1ccc(Cl)c(Cl)c1` | - | 1.435 | -0.2091 |
| 33 | `COCCNC(=O)Cn1ccc2cccc(OC)c21` | -4.692 | -2.352 | -5.822 |
| 34 | `CN(C)C(=O)Cc1ccc(NC(=O)NC2CCCC2)cc1` | 1.484 | -0.977 | -8.952 |
| 35 | `CN(CC(=O)N1CCCC1Cn1cccn1)Cc1ccccc1` (stereo unspecified) | -6.877 | 1.592 | -15.67 |
| 36 | `CC(C)NC(=O)c1cc(Br)cc(S(=O)(=O)N2CCOCC2)c1F` | -0.7224 | 3.169 | -0.7967 |
| 37 | `COC(=O)CC(c1ccc(OC)c(O)c1)c1oc(C)cc(=O)c1O` (stereo unspecified) | 5.556 | -2.65 | -9.869 |
| 38 | `O=C1NCCCc2c1oc1ccc(O)c(CN3CCOCC3)c21` | -2.846 | -1.811 | 19.52 |
| 39 | `COc1cc(NC(=O)NC(C2CC2)C2CC2)ccc1N1CCOC1=O` | 2.805 | 1.256 | -5.09 |
| 40 | `Cn1c2c(c(=O)c3ccccc31)CCC(C)(C)O2` | 0.7341 | 0.6631 | 4.975 |
| 41 | `COCCCn1ccc(NS(=O)(=O)c2cc(F)c(C)cc2F)n1` | 3.749 | 5.584 | -6.051 |
| 42 | `CC(C)N1CCC(CC(=O)NCCc2cc(O)ncn2)CC1` | -1.398 | 4.158 | 1.664 |
| 43 | `COc1cc(N2CCC3(CCCN(C(=O)c4cccnc4)C3)C2)ncn1` (stereo unspecified) | 17.04 | -1.445 | -13.8 |
| 44 | `COCCC(=O)N1C[C@@H](O)[C@H](N2CCN(c3ccccc3)CC2)C1` | -0.9235 | 0.01415 | -14.14 |
| 45 | `Cn1cc(CCNC(=O)CCc2ccc3c(c2)OCO3)cn1` | 0.4859 | 6.029 | 0.5336 |
| 46 | `CC(C)c1nnc2n1CCN(c1nn3cc(C(C)(C)C)nc3s1)C2` | -4.438 | 2.933 | -1.16 |
| 47 | `O[C@@H]1C[C@@H](c2nc(-c3ccc(OC(F)(F)F)cc3)no2)N(CC2CC2)C1` | -6.852 | 11.63 | -4.958 |
| 48 | `O=C(N[C@H]1CCCC[C@@H]1O)c1ccc2nc(-c3ccccc3)[nH]c2c1` | - | 1.549 | -1.951 |
| 49 | `COc1ccc(CN2CCCn3cnc(COCC4CC4)c3C2)cc1` | -3.81 | 3.151 | -12.33 |
| 50 | `Cc1cnn(CC2CCN(CC(O)CN3CCC(C)CC3)CC2)c1` (stereo unspecified) | -5.027 | 6.649 | -4.778 |
| 51 | `Cc1noc(CN(C)Cc2cnc(N3CCOCC3)nc2)n1` | -9.875 | 1.224 | -6.394 |
| 52 | `Cc1nn(C)c(C)c1CC(=O)N1CCC(Nc2cccnn2)CC1` | 2.201 | 0.7883 | 1.792 |
| 53 | `CCSc1cncc(NCc2ccc(N3CCNC(=O)C3)cc2)n1` | -2.807 | 2.991 | 1.034 |
| 54 | `Cc1c(CCC(=O)Nc2ccc(Cl)cn2)cnn1C` | 3.087 | 7.044 | 3.107 |

Repeated from the top, 5 entries:

Compound,MtTrpRS,PfKRS1,ClpP1P2
Cc1cc(C)n(CC(=O)N(C)Cc2csc(-c3cccs3)n2)c(=O)n1,7.993,-5.184,5.829
O=C1CCCN1Cc1nnc2n1CCCN(C(=O)c1ccc[nH]1)C2,-,2.988,-0.9382
Cc1ccc(OCCCNC(=O)Cc2nc3ncccn3n2)cc1,-2.3,4.192,10.96
Cc1cccc(OCC(=O)N(C)C2CCN(CC3CCOC3)CC2)c1 (stereo unspecified),-6.442,8.102,5.581
CS(=O)(=O)Nc1cccc(CNC(=O)CCc2ccsc2)c1,2.204,6.619,2.353

Measurements from “University of Dundee, Small-Polar-MMV Screening Library” (2021), ChEMBL document CHEMBL3988442.